The values that follow come from publication doi:10.1101/2025.08.09.669463.

No constants are given. Whether binding was seen depends on the method and setting. In cells and extracts the contact can be indirect. Sequences can lack the tags named with a protein.

The target in this experiment is T1, AtATG8A, recombinant, for GST pull-down (Arabidopsis thaliana) (UniProt Q8LEM4).
T1 sequence: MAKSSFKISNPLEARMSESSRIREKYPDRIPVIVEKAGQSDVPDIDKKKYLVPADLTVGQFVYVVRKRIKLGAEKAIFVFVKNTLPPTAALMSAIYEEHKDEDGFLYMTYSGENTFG
As to the kind of experiment: pull-down.

B1: AtVCS (Arabidopsis EDC4 homolog), recombinant (protein, UniProt Q9LTT8 1-1344)
chain: MASSPGNTNPHNTPPFDLGILFKPSSNPYPPPAASYPPPTGPFLHNQYDQQHYAPPGISAQPSPVTQQQQDVSSSSAATNLHPQRTLSYPTPPLNLQSPRSNHNPGTHILALLNNTNNGAPVANQEPSHQLPVVNHNEIARSFPGGSGPIRVPSCKLPKGRRLIGEHAVYDVDVRLQGEIQPQLEVTPITKYGSDPQLVVGRQIAVNKVYICYGLKGGNIRVLNINTALRSLFRGHSQRVTDMAFFAEDVDMLASVSLDGKVFVWKISEGSEGEDQPQITGKIVLALQILGEEDTKHPRVCWHCHKQEILVVSIGKHVLRIDTTKVGRGEVFSAEAPLQCPLDKLIDGVQIVGKHDGEVTDLSMCQWMTTRLVSSSVDGTIKIWQDRKAQPLVVLRPHDGHPVSSATFVTSPERPDHIILITGGPLNREMKIWVSAGEEGWLLPADAESWRCTQTLDLKSSTEPRAEEAFFNQVIALSEAGLLLLANAKRNALYAVHLDYGSSPVGTRMDYLSEFTVTMPILSFIGTNDPPEEPIVKVYCVQTLAIQQYTLDLCLCLPPPIENMGLEKSDSSVSREANLVEGMSEPSGLKPTDLPSVDSVPKPSIIVNRSESANKLSFPSAEATSQAIVPPNGEPKTSGLPSQTSGAGSAYATLPQLPLSPRLSSKLSGYHTPVEAIEPVIPHHELGGKTPSADYSVDRQMDAVGERNLDVSSVEEISRSKDSNVTPDDDVSGMRSPSAFFKHPTHLVTPSEILMGVSSAEASITTEDRRDRDANIQDVNNDPRDTEVEVKEISEARSTQNGEINDHDETENCTSENREKVFCSQVSNLSTEMARDCYPSTEGTFIPGESKAYGQPIKAGDESGVDSRGGPAKLLKGKKQKAKNSQGPGLSSTSSNVANLADSFNEQSQSLSHPMTDLLPQLLAMQETMNQVMASQKEMQRQLSNAATGPIGKESKRLEVALGRMIEKSSKSNADALWARIQEETVKNEKALRDHAQQIVNATTNFMSKELNAMFEKTIKKELAAIGPALARSVVPVIEKTVSSAITESFQRGIGDKAVNQLDKSVNIKLEATVARQIQAQFQTSGKQALQEGLRSSVESSVIPSFEKACKAMFDQIDSAFQKGIAEHTNAAQQRFDSGHSQLAHTLKESITSASSVAQALSRELAETQRNLLALAAAGANSGGSNSLVTQLSGGPLGALLEKVEAPMDPTTELSRLISERKYEESFTSALQRSDVSIVSWLCSQVDLRGLLAMNPLPLSQGVLLSLLQQLACDISKDTSRKLAWMTDVVAAINPSDQMIAVHARPIFEQVYQILHHHRNAPGSDVSAIRLIMHVINSMLMGCK
As to B1, the binding entry is “no binding”.
